{
  "source": "patent US8486372B2",
  "about": "(Siemens Medical Solutions USA, Inc., priority 2007, dated 2013)",
  "test": "general procedure: solution-phase peptide synthesis; EDC/N-hydroxysuccinimide; HATU/HOBt/2,4,6-collidine for cyclisation",
  "details": "TFA; for step yield: late stage modification step",
  "data": [
    {"substance": "(5S,8S,14S)-2-amino-5-(3-(tert-butoxycarbonylamino)propyl)-18,18-dimethyl-3,6,9,12,16-pentaoxo-8-(3-(3-(2,2,4,6,7-pentamethyl-2,3-dihydrobenzofuran-5-ylsulfonyl)guanidino)propyl)-1-phenyl-17-oxa-2,4,7,10,13-pentaazanonadecane-14-carboxylic acid", "values": [
      {"measurement": "step yield", "result": 99.8, "unit": "%"}
    ]},
    {"substance": "2-((5S,8S,14S)-2-benzyl-5-(4-(2-(4-(3-fluoropropyl)-1H-1,2,3-triazol-1-yl)acetamido)butyl)-8-(3-guanidinopropyl)-3,6,9,12,15-pentaoxo-1,2,4,7,10,13-hexaazacyclopentadecan-14-yl)acetic acid", "values": [
      {"measurement": "step yield", "result": 45, "unit": "%"}
    ]},
    {"substance": "2-((5S,8S,14S)-2-benzyl-5-(1-(4-(3-fluoropropyl)-1H-1,2,3-triazol-1-yl)-2,18-dioxo-6,9,12,15-tetraoxa-3,19-diazatricosan-23-yl)-8-(3-guanidinopropyl)-3,6,9,12,15-pentaoxo-1,2,4,7,10,13-hexaazacyclopentadecan-14-yl)acetic acid", "values": [
      {"measurement": "step yield", "result": 38, "unit": "%"}
    ]},
    {"substance": "2-((5S,8S,14S)-5-(1-azido-2,18-dioxo-6,9,12,15-tetraoxa-3,19-diazatricosan-23-yl)-2-benzyl-8-(3-guanidinopropyl)-3,6,9,12,15-pentaoxo-1,2,4,7,10,13-hexaazacyclopentadecan-14-yl)acetic acid", "values": [
      {"measurement": "conjugation yield", "setting": "conjugation step", "result": 7.5, "unit": "%"}
    ]},
    {"substance": "2-((5S,8S,14S)-5-(4-aminobutyl)-2-benzyl-8-(3-guanidinopropyl)-3,6,9,12,15-pentaoxo-1,2,4,7,10,13-hexaazacyclopentadecan-14-yl)acetic acid", "values": [
      {"measurement": "step yield", "result": 40, "unit": "%"}
    ]},
    {"substance": "2-((5S,8S,14S)-5-(4-(2-azidoacetamido)butyl)-2-benzyl-8-(3-guanidinopropyl)-3,6,9,12,15-pentaoxo-1,2,4,7,10,13-hexaazacyclopentadecan-14-yl)acetic acid", "values": [
      {"measurement": "step yield", "result": 19, "unit": "%"}
    ]},
    {"substance": "tert-butyl 2-((5S,8S,14S)-2-benzyl-5-(4-(tert-butoxycarbonylamino)butyl)-3,6,9,12,15-pentaoxo-8-(3-(3-(2,2,4,6,7-pentamethyl-2,3-dihydrobenzofuran-5-ylsulfonyl)guanidino)propyl)-1,2,4,7,10,13-hexaazacyclopentadecan-14-yl)acetate", "values": [
      {"measurement": "cyclisation yield", "setting": "cyclisation step", "result": 99, "unit": "%"}
    ]}
  ]
}
